# Measured values taken from article PMC3781053.
# By UniProt entry, the sequences of proteins in these tests, tags left out. Residues count along the entry.
# UniProt P04275, residues 23-2813: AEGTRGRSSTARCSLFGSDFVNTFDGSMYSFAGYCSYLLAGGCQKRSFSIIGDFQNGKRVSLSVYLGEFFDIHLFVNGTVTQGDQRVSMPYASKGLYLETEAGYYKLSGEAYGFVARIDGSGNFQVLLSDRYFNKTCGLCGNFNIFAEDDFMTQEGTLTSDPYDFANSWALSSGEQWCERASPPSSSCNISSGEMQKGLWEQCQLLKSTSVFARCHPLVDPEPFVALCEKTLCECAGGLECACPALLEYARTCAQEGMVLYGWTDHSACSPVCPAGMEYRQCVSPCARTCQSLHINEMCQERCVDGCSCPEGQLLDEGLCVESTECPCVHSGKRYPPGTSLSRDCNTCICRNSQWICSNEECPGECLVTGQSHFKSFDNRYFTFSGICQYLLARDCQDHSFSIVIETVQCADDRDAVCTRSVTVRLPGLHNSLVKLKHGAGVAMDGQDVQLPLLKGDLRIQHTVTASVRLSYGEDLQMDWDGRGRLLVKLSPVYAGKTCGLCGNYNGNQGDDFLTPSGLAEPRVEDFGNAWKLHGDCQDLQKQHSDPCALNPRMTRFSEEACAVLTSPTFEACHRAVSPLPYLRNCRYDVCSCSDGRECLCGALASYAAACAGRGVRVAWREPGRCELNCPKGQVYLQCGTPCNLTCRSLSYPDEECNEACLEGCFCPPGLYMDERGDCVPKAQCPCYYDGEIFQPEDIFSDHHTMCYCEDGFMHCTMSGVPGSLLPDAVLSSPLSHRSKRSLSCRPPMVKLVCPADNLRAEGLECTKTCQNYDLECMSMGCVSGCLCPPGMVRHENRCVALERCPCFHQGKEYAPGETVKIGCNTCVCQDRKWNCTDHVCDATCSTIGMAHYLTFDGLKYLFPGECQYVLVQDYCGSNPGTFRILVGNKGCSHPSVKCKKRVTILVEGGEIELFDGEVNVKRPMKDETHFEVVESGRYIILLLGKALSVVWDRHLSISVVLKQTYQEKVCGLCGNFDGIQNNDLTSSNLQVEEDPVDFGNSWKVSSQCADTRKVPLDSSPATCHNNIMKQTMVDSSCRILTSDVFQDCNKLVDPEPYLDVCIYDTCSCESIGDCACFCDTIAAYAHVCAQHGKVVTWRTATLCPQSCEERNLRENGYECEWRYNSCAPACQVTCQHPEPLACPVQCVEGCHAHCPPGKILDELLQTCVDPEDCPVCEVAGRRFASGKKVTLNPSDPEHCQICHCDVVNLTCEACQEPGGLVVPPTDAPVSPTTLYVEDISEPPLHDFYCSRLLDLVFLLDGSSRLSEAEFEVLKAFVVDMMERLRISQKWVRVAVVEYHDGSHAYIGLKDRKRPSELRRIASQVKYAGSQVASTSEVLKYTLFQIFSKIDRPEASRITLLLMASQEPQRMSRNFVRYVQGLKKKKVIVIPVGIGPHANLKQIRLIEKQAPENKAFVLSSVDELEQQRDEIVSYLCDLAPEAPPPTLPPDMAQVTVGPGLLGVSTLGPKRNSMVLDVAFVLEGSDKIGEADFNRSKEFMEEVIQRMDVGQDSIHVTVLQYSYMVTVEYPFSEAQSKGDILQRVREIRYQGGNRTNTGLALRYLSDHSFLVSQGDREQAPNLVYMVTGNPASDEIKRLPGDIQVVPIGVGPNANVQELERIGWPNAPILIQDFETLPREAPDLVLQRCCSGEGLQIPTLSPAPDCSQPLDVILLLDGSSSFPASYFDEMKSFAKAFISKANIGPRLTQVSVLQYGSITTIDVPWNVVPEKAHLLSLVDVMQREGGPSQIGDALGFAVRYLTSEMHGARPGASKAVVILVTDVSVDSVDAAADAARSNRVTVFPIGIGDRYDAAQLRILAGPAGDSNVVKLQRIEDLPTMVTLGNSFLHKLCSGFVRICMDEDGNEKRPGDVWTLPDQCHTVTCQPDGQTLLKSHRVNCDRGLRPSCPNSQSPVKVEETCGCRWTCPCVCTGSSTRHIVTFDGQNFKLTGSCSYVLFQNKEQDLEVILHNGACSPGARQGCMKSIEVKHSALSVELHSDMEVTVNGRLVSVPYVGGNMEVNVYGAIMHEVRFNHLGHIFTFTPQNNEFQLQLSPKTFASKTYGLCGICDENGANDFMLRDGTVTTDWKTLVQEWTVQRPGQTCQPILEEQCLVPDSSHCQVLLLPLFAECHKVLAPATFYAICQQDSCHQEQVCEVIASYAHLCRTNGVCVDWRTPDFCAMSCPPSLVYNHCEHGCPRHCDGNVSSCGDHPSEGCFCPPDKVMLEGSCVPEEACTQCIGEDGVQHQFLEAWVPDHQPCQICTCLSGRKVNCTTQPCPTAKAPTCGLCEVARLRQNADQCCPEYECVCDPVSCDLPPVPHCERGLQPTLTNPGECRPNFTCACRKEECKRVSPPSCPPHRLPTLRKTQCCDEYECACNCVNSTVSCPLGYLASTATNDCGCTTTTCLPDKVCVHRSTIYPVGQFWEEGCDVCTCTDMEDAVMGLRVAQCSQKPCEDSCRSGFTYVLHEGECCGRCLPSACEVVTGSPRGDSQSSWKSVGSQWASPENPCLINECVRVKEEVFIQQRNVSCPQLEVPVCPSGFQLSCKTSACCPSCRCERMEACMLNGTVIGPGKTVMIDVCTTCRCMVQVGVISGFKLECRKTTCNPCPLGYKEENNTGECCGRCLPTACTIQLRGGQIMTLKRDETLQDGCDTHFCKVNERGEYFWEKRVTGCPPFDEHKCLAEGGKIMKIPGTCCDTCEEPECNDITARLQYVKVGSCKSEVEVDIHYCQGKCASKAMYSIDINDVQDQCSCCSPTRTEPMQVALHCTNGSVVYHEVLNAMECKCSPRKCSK
# UniProt P46531, residues 19-1735: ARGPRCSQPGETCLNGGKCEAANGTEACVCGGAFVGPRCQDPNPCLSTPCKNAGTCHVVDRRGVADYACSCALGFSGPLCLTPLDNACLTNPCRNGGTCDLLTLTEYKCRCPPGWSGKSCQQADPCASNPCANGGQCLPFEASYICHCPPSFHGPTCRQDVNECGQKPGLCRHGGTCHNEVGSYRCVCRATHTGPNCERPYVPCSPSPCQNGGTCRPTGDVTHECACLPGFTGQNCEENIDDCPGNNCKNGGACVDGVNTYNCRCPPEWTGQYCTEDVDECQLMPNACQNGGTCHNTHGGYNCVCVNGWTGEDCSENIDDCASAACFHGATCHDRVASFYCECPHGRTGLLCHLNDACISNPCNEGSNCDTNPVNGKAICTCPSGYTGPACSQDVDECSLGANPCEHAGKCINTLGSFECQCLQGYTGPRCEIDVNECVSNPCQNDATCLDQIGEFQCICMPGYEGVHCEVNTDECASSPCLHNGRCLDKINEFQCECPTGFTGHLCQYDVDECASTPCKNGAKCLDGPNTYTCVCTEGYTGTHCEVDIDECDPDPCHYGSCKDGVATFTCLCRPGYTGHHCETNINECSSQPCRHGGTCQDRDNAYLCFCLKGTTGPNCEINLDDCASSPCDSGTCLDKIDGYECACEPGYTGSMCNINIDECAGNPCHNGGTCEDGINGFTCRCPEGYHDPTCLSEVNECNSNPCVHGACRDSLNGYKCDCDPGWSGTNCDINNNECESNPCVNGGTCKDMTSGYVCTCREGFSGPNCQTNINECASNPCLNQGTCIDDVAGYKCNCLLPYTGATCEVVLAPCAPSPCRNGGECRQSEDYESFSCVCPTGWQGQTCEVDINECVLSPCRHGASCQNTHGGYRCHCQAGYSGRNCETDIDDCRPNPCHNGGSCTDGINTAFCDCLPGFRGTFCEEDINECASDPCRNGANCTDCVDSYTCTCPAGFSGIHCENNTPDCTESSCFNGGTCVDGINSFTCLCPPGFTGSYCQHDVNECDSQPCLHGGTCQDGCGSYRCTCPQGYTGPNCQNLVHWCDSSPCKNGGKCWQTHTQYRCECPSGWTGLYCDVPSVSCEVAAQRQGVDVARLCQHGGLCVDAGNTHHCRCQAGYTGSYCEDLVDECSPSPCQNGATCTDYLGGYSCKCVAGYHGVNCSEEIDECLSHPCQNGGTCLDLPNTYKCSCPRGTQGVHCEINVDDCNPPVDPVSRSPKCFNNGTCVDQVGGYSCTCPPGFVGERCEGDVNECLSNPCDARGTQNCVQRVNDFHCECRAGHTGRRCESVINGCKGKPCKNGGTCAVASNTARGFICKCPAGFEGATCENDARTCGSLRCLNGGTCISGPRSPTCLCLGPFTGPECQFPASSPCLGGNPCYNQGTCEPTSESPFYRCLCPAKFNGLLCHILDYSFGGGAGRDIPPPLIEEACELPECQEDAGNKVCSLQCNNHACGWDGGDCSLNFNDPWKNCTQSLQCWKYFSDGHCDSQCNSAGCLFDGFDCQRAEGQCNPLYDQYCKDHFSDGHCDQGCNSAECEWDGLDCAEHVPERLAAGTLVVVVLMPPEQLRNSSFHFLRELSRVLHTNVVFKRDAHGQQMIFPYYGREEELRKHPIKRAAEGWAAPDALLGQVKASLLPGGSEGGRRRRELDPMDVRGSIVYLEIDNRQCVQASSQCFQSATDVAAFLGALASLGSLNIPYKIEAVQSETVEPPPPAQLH
# UniProt Q99466, residues 24-1447: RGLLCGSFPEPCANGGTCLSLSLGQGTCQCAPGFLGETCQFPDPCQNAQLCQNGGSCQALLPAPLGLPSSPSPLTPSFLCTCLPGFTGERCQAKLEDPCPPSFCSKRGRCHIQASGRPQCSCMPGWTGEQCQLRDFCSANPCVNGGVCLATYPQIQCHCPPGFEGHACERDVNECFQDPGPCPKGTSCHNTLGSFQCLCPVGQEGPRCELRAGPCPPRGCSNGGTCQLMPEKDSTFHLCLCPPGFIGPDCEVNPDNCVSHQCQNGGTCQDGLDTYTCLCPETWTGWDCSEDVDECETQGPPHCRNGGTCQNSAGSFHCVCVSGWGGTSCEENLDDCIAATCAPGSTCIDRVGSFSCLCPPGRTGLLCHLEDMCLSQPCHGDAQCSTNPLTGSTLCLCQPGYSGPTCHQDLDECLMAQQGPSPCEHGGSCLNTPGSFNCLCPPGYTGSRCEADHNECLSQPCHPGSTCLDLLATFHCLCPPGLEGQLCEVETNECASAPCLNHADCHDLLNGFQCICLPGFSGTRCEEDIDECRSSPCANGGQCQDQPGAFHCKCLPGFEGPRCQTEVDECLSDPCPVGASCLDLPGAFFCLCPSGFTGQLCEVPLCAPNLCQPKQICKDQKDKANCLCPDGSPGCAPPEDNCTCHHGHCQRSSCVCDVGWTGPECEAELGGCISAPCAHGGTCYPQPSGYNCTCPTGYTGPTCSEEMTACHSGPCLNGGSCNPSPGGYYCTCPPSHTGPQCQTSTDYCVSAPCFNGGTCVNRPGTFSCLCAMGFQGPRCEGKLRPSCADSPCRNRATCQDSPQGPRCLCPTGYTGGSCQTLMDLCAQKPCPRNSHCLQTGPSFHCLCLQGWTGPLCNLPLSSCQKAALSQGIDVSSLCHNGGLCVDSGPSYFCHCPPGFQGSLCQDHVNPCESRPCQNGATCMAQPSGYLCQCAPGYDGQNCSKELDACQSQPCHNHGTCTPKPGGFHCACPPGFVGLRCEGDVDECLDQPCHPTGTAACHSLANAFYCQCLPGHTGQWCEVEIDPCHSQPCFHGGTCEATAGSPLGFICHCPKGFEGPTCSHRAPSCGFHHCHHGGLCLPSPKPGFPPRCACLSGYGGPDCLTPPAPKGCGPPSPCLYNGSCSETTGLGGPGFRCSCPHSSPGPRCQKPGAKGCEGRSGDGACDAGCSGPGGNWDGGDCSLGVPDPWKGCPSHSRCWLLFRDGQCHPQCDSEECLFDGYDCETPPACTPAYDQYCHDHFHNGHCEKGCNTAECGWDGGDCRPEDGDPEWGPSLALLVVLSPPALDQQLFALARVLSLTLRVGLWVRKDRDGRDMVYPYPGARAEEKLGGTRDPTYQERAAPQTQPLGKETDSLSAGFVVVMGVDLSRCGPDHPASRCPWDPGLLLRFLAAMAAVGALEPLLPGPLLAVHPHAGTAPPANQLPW
# Results are given in words; binding and its absence hold for the method and conditions named. Binding seen in cells or lysates may run through a third protein. Some entries that bind do so weakly or less than the wild type.
# Molecular target: full length, C-terminally myc-(His)6-tagged human vWF (human) (UniProt P04275)
# Test: co-IP; 293A cells cotransfected with vWF and Notch or Jagged1 ectodomains or full length NOTCH3; lysates treated with monoclonal antibody and protein G-agarose at 4°C; immunoblot
row,binding,Substance
1,binds,full length human NOTCH3 (from UniProt Q9UM47 40-2321) (receptor)
2,binds,"human Notch1 ectodomain, V5-tagged (from UniProt P46531 19-1735) (domain or fragment)"
3,binds,"human Notch4 ectodomain, V5-tagged (from UniProt Q99466 24-1447) (domain or fragment)"

# More lines, now with the values behind:
row,Substance,binding
1,"human Jagged1 ectodomain, C-terminally tagged (from UniProt P78504 34-1067) (domain or fragment)",binds
2,"human Notch2 ectodomain, V5-tagged (from UniProt Q04721 26-1677) (domain or fragment)",binds
3,"human Notch3 ectodomain, HA-tagged (from UniProt Q9UM47 40-1643) (domain or fragment)",binds
